Assay results published in patent US20060053496A1.
No constants are given. Whether binding was seen depends on the method and setting. In cells and extracts the contact can be indirect. A result given as binding can be weak or reduced; the word gives no strength. Tags and fused reporters may be left off the sequences shown.

How the values were obtained:
α-tubulin [1] = assay: summary sentence of Example 2 (co-immunoprecipitation)
β-tubulin [2] = assay: as above
α-tubulin [3] = assay: anti-FLAG co-immunoprecipitation from 293T cells, 2D gel, MALDI-MS
β-tubulin [4] = assay: as above

Measured: binding

B1: FLAG-tagged Monarch-1 (protein, not shown: small tags and cut ends)
chain: MLRTAGRDGLCRLSTYLEELEAVELKKFKLYLGTATELGEGKIPWGSMEKAGPLEMAQLLITHFGPEEAWRLALSTFERINRKDLWERGQREDLVRDTPPGGPSSLGNQSTCLLEVSLVTPRKDPQETYRDYVRRKFRLMEDRNARLGECVNLSHRYTRLLLVKEHSNPMQVQQQLLDTGRGHARTVGHQASPIKIETLFEPDEERPEPPRTVVMQGAAGIGKSMLAHKVMLDWADGKLFQGRFDYLFYINCREMNQSATECSMQDLIFSCWPEPSAPLQELIRVPERLLFIIDGFDELKPSFHDPQGPWCLCWEEKRPTELLLNSLIRKKLLPELSLLITTRPTALEKLHRLLEHPRHVEILGFSEAERKEYFYKYFHNAEQAGQVFNYVRDNEPLFTMCFVPLVCWVVCTCLQQQLEGGGLLRQTSRTTTAVYMLYLLSLMQPKPGAPRLQPPPNQRGLCSLAADGLWNQKILFEEQDLRKHGLDGEDVSAFLNMNIFQKDINCERYYSFIHLSFQEFFAAMYYILDEGEGGAGPDQDVTRLLTEYAFSERSFLALTSRFLFGLLNEETRSHLEKSLCWKVSPHIKMDLLQWIQSKAQSDGSTLQQGSLEFFSCLYEIQEEEFIQQALSHFQVIVVSNIASKMEHMVSSFCLKRCRSAQVLHLYGATYSADGEDRARCSAGAHTLLVQLRPERTVLLDAYSEHLAAALCTNPNLIELSLYRNALGSRGVKLLCQGLRHPNCKLQNLRLKRCRISSSACEDLSAALIANKNLTRMDLSGNGVGFPGMMLLCEGLRHPQCRLQMIQLRKCQLESGACQEMASVLGTNPHLVELDLTGNALEDLGLRLLCQGLRHPVCRLRTLWLKICRLTAAACDELASTLSVNQSLRELDLSLNELGDLGVLLLCEGLRHPTCKLQTLRLGICRLGSAACEGLSVVLQANHNLRELDLSFNDLGDWGLWLLAEGLQHPACRLQKLWLDSCGLTAKACENLYFTLGINQTLTDLYLTNNALGDTGVRLLCKRLSHPGCKLRVLWLFGMDLNKMTHSRLAALRVTKPYLDIGC
binds: all assays above
